The other results are listed elsewhere or left out. Values are raw readings; no control value is given beside them.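 In the initial screen, polymyxin B was used at a concentration that permeabilizes Salmonella's outer membrane but not its inner membrane. Maximum growth was set by DMSO wells with or without polymyxin B. Since plates varied, data were ranked per plate, and compounds giving the lowest OD600 advanced as hits.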
Test system: Salmonella enterica serovar Typhimurium SL1344
Experiment: bacterial growth OD600 after 18 h with compound and polymyxin B; higher = more bacterial growth (less inhibition)
Details: 50 µM, Mueller-Hinton broth

SMILES | bacterial growth OD600 (polymyxin B 0.75 µg/mL) | bacterial growth OD600 (polymyxin B 1 µg/mL)
Cc1c(CN2CCOc3ccc(CN4CCC(OCc5ccccc5)CC4)cc3C2)cnn1C | 0.803 | –
O=C(Nc1ccc(Oc2ccccc2)nc1)C1CCN(CC2CC2)CC1 | 0.84 | –
COCc1noc(-c2ccc(N3CCCC3c3nccs3)nc2)n1 (configuration not stated) | – | 0.005
Cc1c(-c2ccc(F)cc2)[nH]c2ccc(CNC(C)CO)cc12 (configuration not stated) | – | 0.715
O=C(NC1CCCN(C2CCCCCC2)C1)c1ccc(Cn2cnnn2)cc1 (configuration not stated) | – | 1.08
Cc1nc(C(=O)N2CCC(CCC(=O)N3CCC(Cc4ccccc4)CC3)CC2)cs1 | – | 0.884
CCC(CC)NC(=O)C1CCC(=O)N(CCc2ccc(Cl)cc2)C1 (configuration not stated) | – | 0.9
O=C(NC1CCc2ccccc21)c1ccc(OC2CCN(C(=O)C3CC3)CC2)cc1 (configuration not stated) | – | 0.569
CN1C(=O)CC(CC(=O)N2CCC[C@H]2CO)(c2ccc(-c3ccccc3)cc2)C1=O (some centres not stated) | 0.742 | –
Cc1nc(N2CCCC(NCc3cc(F)ccc3F)CC2)nc2ccc(F)cc12 (configuration not stated) | 0.698 | –
CC(C)CCC(=O)N1CCC2(CCCN(Cc3cccc(F)c3F)C2=O)C1 (configuration not stated) | – | 0.505
Cc1ccoc1C(=O)N1CCc2[nH]nc(-c3ccc(Cl)cc3)c2C1 | 0.026 | –
COc1cccc(CC2(CO)CCCN(Cc3ccc4c(c3)OCCO4)C2)c1 (configuration not stated) | – | 0.831
CCOC(=O)CCNC(=O)N1CCCC(CNS(=O)(=O)c2cccs2)C1 (configuration not stated) | 0.777 | –
COc1ccc(F)c(-c2nc(CN(C)C(C)c3cccs3)c(C)o2)c1 (configuration not stated) | – | 0.833
CCOC(=O)C1(Cc2ccccc2)CCCN(Cc2cnn(CC)c2)C1 (configuration not stated) | – | 0.887

In another format: entries from further up.

| SMILES | bacterial growth OD600 (polymyxin B 0.75 µg/mL) | bacterial growth OD600 (polymyxin B 1 µg/mL) |
| --- | --- | --- |
| O=C(NC1CCc2ccccc21)c1ccc(OC2CCN(C(=O)C3CC3)CC2)cc1 (configuration not stated) | – | 0.569 |
| CN1C(=O)CC(CC(=O)N2CCC[C@H]2CO)(c2ccc(-c3ccccc3)cc2)C1=O (some centres not stated) | 0.742 | – |
| Cc1nc(N2CCCC(NCc3cc(F)ccc3F)CC2)nc2ccc(F)cc12 (configuration not stated) | 0.698 | – |
| CC(C)CCC(=O)N1CCC2(CCCN(Cc3cccc(F)c3F)C2=O)C1 (configuration not stated) | – | 0.505 |
| Cc1ccoc1C(=O)N1CCc2[nH]nc(-c3ccc(Cl)cc3)c2C1 | 0.026 | – |
| COc1cccc(CC2(CO)CCCN(Cc3ccc4c(c3)OCCO4)C2)c1 (configuration not stated) | – | 0.831 |

Additional structures follow.

SMILES | bacterial growth OD600 (polymyxin B 0.75 µg/mL) | bacterial growth OD600 (polymyxin B 1 µg/mL)
COc1cc(CN(C(=O)c2cccc(-c3cccc(F)c3)c2)[C@H]2CCCCNC2=O)ccc1OCCc1scnc1C | 0.52 | –
COCC(=O)Nc1cc(C(=O)N2CCN(C(C)=O)CC2)c2c(c1)ncn2Cc1ccc(F)cc1 | 0.811 | –
CCCCN(C)Cc1cnc(S(=O)(=O)C(C)C)n1Cc1ccccc1F | – | 0.971
O=C(CCCc1ccccc1)Nc1cccc(N2CCC(NCc3cccnc3)CC2)c1 | 0.781 | –
COc1ccc(OCc2cc(C(=O)NCc3cccc(F)c3)no2)c(Cl)c1 | – | 0.739
CCCCN(C)C(=O)c1cn(Cc2ccccc2Cl)nn1 | – | 0.838
CCCOC1CCCN(C(=O)c2cn(Cc3ccccc3C)nn2)C1 (configuration not stated) | – | 0.741
CC(C)Cc1cc(CN2CCC(CO)(CCOc3ccccc3)CC2)n[nH]1 | 0.741 | –
CSc1ncccc1C(=O)NC1CCCN(CCCc2ccccc2)C1 (configuration not stated) | – | 1.17
O=C1O[C@@H]2CN(Cc3ccc(CO)o3)C[C@@H]2N1CCc1ccc(F)cc1 | 0.816 | –
COc1ccc(C2(C(=O)NC(C)c3cnn(-c4ccccn4)c3C)CCCC2)cc1 (configuration not stated) | – | 0.879
COc1ccc(CCCNC(=O)c2ccc(N3CCCCO3)nc2)cc1 | – | 0.923
Cc1ncc(CN2CCC(C3CCN(CC(C)C)CC3)C2)n1C (configuration not stated) | 0.777 | –
Cc1cccc(NC(=O)CCC2CCN(Cc3cccc(C)n3)CC2)c1 | 0.921 | –
CN(Cc1cccnc1)c1ccc(-c2nc(COc3ccccc3)no2)cn1 | – | 0.778
CCOC(=O)CC1CCCCN1C(=O)c1cn(C2CCCCC2)nn1 (configuration not stated) | – | 0.747
